Some results were stated once for a whole list of compounds, not compound by compound.
Molecular target: T1, human CB1R (Homo sapiens, UniProt P21554)
T1 construct: expressed in transfected cells; host or cells: HEK293T (HEK293T-CB1-CRE-Luc)
Assay: CB1R positive allosteric modulation (PAM) activity, CRE-luciferase reporter in the presence of the orthosteric agonist CP-55,940
Format: cell-based
Conditions: pure compounds isolated from F4 CO2-se fraction, evaluated in CB1R activity
Method: The determination of CB1R activity was carried out using the HEK293T-CB1-CRE-Luc cells stably transfected with the human CB1R cDNA, and a construction of CRE-Luc that contains as promoter six consensus cAMP responsive elements (CRE) linked to firefly luciferase reporter gene. The increase in cAMP levels activates the CRE-Luc system, inducing the expression of the luciferase reporter gene. Briefly, HEK293T-CB1-CRE-Luc cells were cultured in supplemented DMEM (Sigma) medium containing 10% FBS (Gibco) and 1% antibiotics penicillin/streptomycin (Sigma) (DMEM complete medium) and maintained at 37° C in a humidified atmosphere of 5% CO2. The day before the assay 10^4 cells per well were seeded in 96 well-plates and incubated overnight. For determining CB1R positive allosteric modulation (PAM) activity, HEK293T-CB1-CRE-Luc cells were treated with increasing concentrations of the fractions for 30 min and then treated with the CB1R orthosteric agonist CP-55,940 at 2.5 µM. For CB1R agonistic activity, HEK293T-CB1-CRE-Luc cells were treated with increasing concentrations of the fractions. CP-55,940 alone, a CB1R orthosteric agonist, was used at 2.5 µM as positive control of cAMP signaling pathway activated by a CB1R-dependent orthosteric mechanism; and cells without stimulus were used as negative control. In both assays, after 6 h of stimulation, cells were washed twice with PBS 1X and lysed in 100 µL lysis buffer containing 25 mM Tris-phosphate (pH 7.8), 8 mM MgCl2, 1 mM DTT, 1% Triton X-100, and 7% glycerol during 15 min at room temperature in a horizontal shaker. Luciferase activity was measured using a TriStar2 Berthold/LB942 multimode reader (Berthold Technologies) following the instructions of the luciferase assay kit (Promega, Madison, Wl, USA). The RLUs (relative light units) were calculated and: (i) For allosteric activity, results were expressed as percentage of CB1R activity normalized to 100% stimulation induced by 2.5 µM CP-55,940, according to the following formula: Percentage of CB1R activity = 100 * (T - B) / (C - B); where T are the RLUs of the cells treated with the fractions and 2.5 µM CP-55,940; C are the RLUs of the cells treated with CP-55,940 alone, and B are the RLUs of the cells without stimulus. CB1R activity ≥ 150% was considered CB1R PAM activity (ii) For the CB1R agonistic activity, results were expressed as a fold change over non-stimulated cells according to the following formula: Fold change of CB1R activity = T / B; where T are RLUs of the cells treated with the fractions and B are the RLUs of the cells without stimulus. CB1R activity ≥ 2.5-fold increase is considered CB1R agonistic activity.

Sequences of proteins named here, by UniProt entry; tags and fusion partners are left off.
UniProt P21554, whole entry: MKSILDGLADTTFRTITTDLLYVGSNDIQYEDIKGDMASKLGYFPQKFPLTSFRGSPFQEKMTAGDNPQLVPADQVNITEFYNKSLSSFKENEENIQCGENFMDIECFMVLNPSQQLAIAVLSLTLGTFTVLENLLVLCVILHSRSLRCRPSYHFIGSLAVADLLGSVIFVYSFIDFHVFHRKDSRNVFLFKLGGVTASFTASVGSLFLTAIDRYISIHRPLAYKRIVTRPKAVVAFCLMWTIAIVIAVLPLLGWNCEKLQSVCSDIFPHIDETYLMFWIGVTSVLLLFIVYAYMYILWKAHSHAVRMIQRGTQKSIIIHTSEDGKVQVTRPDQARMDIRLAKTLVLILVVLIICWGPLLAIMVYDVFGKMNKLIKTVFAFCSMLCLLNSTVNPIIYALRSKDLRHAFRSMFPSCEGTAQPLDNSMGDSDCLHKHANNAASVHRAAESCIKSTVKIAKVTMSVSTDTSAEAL

Molecule	effect on CB1R
beta-elemolo	only agathadiol and deoxypodophyllotoxin showed effect on CB1R
COc1cc(CC2C(=O)OCC2Cc2ccc3c(c2)OCO3)cc(OC)c1OC (stereo not shown) [yatein]	only agathadiol and deoxypodophyllotoxin showed effect on CB1R
C=CC(=C)CCC=C(C)C [β-myrcene]	only agathadiol and deoxypodophyllotoxin showed effect on CB1R
COc1cc([C@H]2c3cc4c(cc3C[C@@H]3COC(=O)[C@H]32)OCO4)cc(OC)c1OC [deoxypodophyllotoxin, (5S,5aS,8aS)-5-(3,4,5-trimethoxyphenyl)-5a,8,8a,9-tetrahydro-5H-[2]benzofuro[5,6-f][1,3]benzodioxol-6-one]	showed effect on CB1R
agathadic acid	only agathadiol and deoxypodophyllotoxin showed effect on CB1R
C=C1CC[C@H]2[C@@](C)(CO)CCC[C@]2(C)[C@H]1CC/C(C)=C/CO [agathadiol, (E)-5-[(1S,4aR,5S,8aR)-5-(hydroxymethyl)-5,8a-dimethyl-2-methylidene-3,4,4a,6,7,8-hexahydro-1H-naphthalen-1-yl]-3-methylpent-2-en-1-ol]	showed effect on CB1R
C=C1C=CC(C(C)C)CCC(C)=CCC1 (stereo not shown) [germacrene D]	only agathadiol and deoxypodophyllotoxin showed effect on CB1R
C=CC(=C)CCC=C(C)CCC=C(C)C [beta-farnese]	only agathadiol and deoxypodophyllotoxin showed effect on CB1R
C=C1CCC2(C(C)C)CC12 (stereo not shown) [sabinene]	only agathadiol and deoxypodophyllotoxin showed effect on CB1R
CC1=CCC2CC1C2(C)C (stereo not drawn) [α-pinene]	only agathadiol and deoxypodophyllotoxin showed effect on CB1R
